Experimental data from PubChem BioAssay AID1508600 (Functional Genomics Laboratory (NCATS/FGL), 2020).
The whole screen tested about 53,000 sequences, of which about 3,700 (7%) were called active.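 How the source made its calls: active means gene knockdowns whose robust z-score for IL-1 alpha signal is at least 2 or at most -2, so actives lie on both sides; inactive means the rest.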 The list shows a part of the results.

Test: Components of the Cytosolic LPS Sensing Pathway: Gene Identification via Genome-wide siRNA Screen;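 further: robust z of the log signal after scaling to non-targeting control siRNA wells of the plate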
Settings: RAW264.7 macrophages, IL-1a HTRF, actives lie on both sides, screened at 100 nM (by protocol), cells primed 5 h with Pam3CSK4 first
How it was run: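 Three distinct siRNAs per gene were tested singly at 100 nM in RAW264.7 macrophages. Following Pam3CSK4 priming and 24 hour LipidA transfection, IL-1a secretion was read by HTRF.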

z-score, active:
GCCUAAAAAAUCUCUGUGATT against Zswim3 -2.77, CCCUCUCUACGAUGACUCUTT against Parm1 -2, CCCGAUUACUGGAGUUAAATT against Kbtbd7 2.32, GCUUGACGCGAACUUACCATT against Endog 2.35, GGAGCAACAGCCAAAUACCTT against Hmgb4 2.39, GGAAGAGAGCCUCUGCCAATT against Ccnb2 2.28, GGAGAUCAUCCACUUCCAGTT against Dbh 2.06, CCUGCAUGCCUAUGUGCGUTT against Ace 2.89, GGUACAUGAUUACCAGCCUTT against Sdk2 -2.26

z-score, inactive:
GGCUGAUCUCUUUUGCCAGTT against Reg2 0.00409, GCAAACUAUUUGUCUGGUGTT against Ripk1 0.7, CCAAGCACGCACCAAGAUCTT against Lrrc45 0.365, GCCAUGUUAACUGCCUCAATT against Bmyc -0.306, CGAGAUUGUCAGUCUUUCCTT against Pcgf2 1.17, GGUACGGUUAAUAGCCACGTT against Snai2 -1, GCGGUUGAUGUCCUGUGUUTT against Adra1b -1.45, GCAUUACCAAAAGCAGUCUTT against Lyn -1.46, GCUCCAACGUAAGUGGGAATT against 1700123L14Rik -0.886, CGUUCUUUUACAGUGCUUGTT against Lonrf3 0.139, GCGACAGUCCAACUUUUAATT against Allc -1.87, GGAGAAAAGGACUGAAGGCTT against Ralbp1 1.43, GGUAAAAGGUGCCUUGAGATT against Olfr446 0.111, GGCACUGAGGUUGUUCAGGTT against Eif3h 0.806, CCCUUCUCACUAACAUACATT against Dach1 1.18, GGCCAACAGGACAGAGAUGTT against Gm5105 0.86, GGAAAUGCUGCCAUUGUUATT against Aldh3a2 0.333, CGGUAAAGUGAAUCAUAGATT against Tas2r105 0.726, CCUUAAUAAACUAUGCUGCTT against Tonsl -0.132, GGUGGUGAUAUCAAGAAUCTT against Sfxn3 -1.25, GGAGUUCCUGAUUUACGUCTT against Usp50 -0.751, CGUGUGGAGUAAACACCAATT against Herc3 -0.639, GGGCAGUCAUAGCUUUAGUTT against Fndc11 0.837, GGAGCUUGAAGCAUCCUAGTT against Bdkrb2 -0.585, CGAUGUCAUGCUCAGCGCATT against Nlgn2 -0.389, GGGUGAUCUGUAGUAUUUUTT against Olfr574 -0.879, GGAUGCUAUAUGUUGGCCGTT against Ly6g6g 0.277, GCUCCUGUGAUUGAUGCAGTT against Dync1h1 0.528, GCCUUAACCGCCAGAUGUCTT against 2900026A02Rik 0.348, GGAGCCGAGUACAACAUCATT against B4galnt1 -0.451, GGUGGAAAAAUAUUCUGCATT against Kcnk2 0.338, GCUACUUGUUGAGACCCAATT against Esr1 -0.616, GGCUGAGGAAUCAAAAUGUTT against Mdh1 1.15, CCGGGACAAGAAUUUCCUCTT against Xylt2 1.17, GCAGAUCGAGUGAGCUCUATT against Ccr2 -0.0424, GGACACUUGCUCGACUUCATT against Palb2 -0.0168, CCUUCCUCCUUUAUGAGCATT against Tsga10 -0.58, GGAAGUGGUAAUUUCAGUATT against Ssr1 1.45, GGUUAUCAAAGCUAAGAAUTT against Ifi209 -0.0859, CCUGGAUAUGCGCAAGUGUTT against Oxt 1.56, GGAGUGAAAAAAAUUCACATT against Chrna1 0.378, GGUUGAUGUCAGUGGAAGATT against Dab2ip -0.15, GACACAGCAUCUUCAUGGATT against Vmn1r42 1.77, GGUGGCUAUAACAGAGCCUTT against Rdh18-ps 0.173, GGAACACAAGAUUUUCCUGTT against Ppp2r5c 0.559, CGAGCGGAUGCUGGUAUUUTT against Kif18b -1.78, CCUUGUGAUUGACGAGUGUTT against Snrpg -1.51, GGAAUUGACUUUAAGACAATT against Boll -0.413, CGUGGAUGAGAACUAACCUTT against Rpl31 1.24, GGACAGUGCUCGAAACCGATT against Smagp -0.58, GGAAGAAGCACAAUUUGAATT against Selenof -0.946, GGUUUCAAUUCUGUGUUCATT against Unc5b -1.42, GGGUAGGUCCUUUGUAACCTT against Pcdhb16 -0.58, CCCUAUACACAAGAUGAACTT against Cd96 -0.709, GGAUUGAAAAGAUGAAUCGTT against Mrpl58 0.704, GCCCUAUAUGUACCAAGUGTT against Mmp14 0.273, GGACUUCUCUGGGACUUCATT against Syt9 0.406, GGGAGUCCCAAUUGUGUGCTT against Gpr88 -0.841, GGAUUCUGAGUGUACGUUUTT against Zfp28 0.0227, GAGAAGAGAGAGAAGCAUUTT against Tssk6 0.339
